Test results as given in PMC2659799.
Results are given in words; binding and its absence hold for the method and conditions named. In cells and extracts the contact can be indirect. Some binding calls cover weakened binding; strength is not graded here.

Molecular target: Cellular prion protein (PrP^C) (human (endogenous in plasma microvesicles)) (UniProt P04156)
Assay: co-IP

## p59Fyn kinase (from UniProt P06241 1-537) (enzyme)
  binding: binds
